# Literature values, collected in patent US20250152730A1, “ANTI-TM4SF1 ANTIBODY-DRUG CONJUGATES COMPRISING CLEAVABLE LINKERS AND METHODS OF USING SAME” (Angiex, Inc., priority 2022, published 2025).
# At least one structure is not confirmed: it was looked up by name or label, or the drawing left a doubt.
# Settings: Phase II FALCON study; reduced from 16.2; cited from earlier work
smiles,measurement,value
"COc1ccc(/C=C\c2cc(OC)c(OC)c(OC)c2)cc1OP(=O)(O)O [CA4P, Combretastatin]",Overall survival,13.6 months
